The whole screen tested about 400,000 compounds, of which about 13,000 (3.2%) were called active. Inconclusive means that the source gave no clear call. Such entries were picked first, then a sample of the others. Calls follow the shape of the dose curve; as a rule, active = well fitted cell-killing curve with a large enough effect; inconclusive = small, poorly fitted or top-dose-only effect, or effect the other way; inactive = flat fitted curve, though single readings scatter. Potencies of inconclusive entries are doubtful fits and often do not repeat.
Assay: qHTS assay for MDR1-selective chemotherapeutics: Primary screen using the drug-selected MDR subline cells KB-V1; also: nearly all actives have a fitted effect of over 60% in size
Conditions: KB-V1 MDR cells viability, CellTiter-Glo, 72 h; activity change, negative = cytotoxicity: at 46.1 µM (top of the series)
How it was run: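 Readout: CellTiter-Glo luminescence, 10 min after addition. Cells: KB-V1 MDR subline, 72 h at 37 degrees C with compound. Analysis: corrected, normalized data fitted to concentration-effect curves.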
% is scaled to controls: 0 for no effect and ±100 for the full control effect; potency is read from the fitted curve at half-maximal effect.

| Compound | Potency | activity change, negative = cytotoxicity |
| --- | --- | --- |
| CCOc1ccc(N(Cc2cc3cc(OC)ccc3[nH]c2=O)S(C)(=O)=O)cc1 | active: 14.6 µM |  |
| O=C(CSc1nc2ccccc2c(=O)n1CC1CCCO1)NCc1ccc2c(c1)OCO2 (stereo not drawn) | inconclusive: 3.66 µM [cytotoxic, partial curve] |  |
| CC(C)(C)NC(=O)c1ccccc1-c1nc(-c2ccccc2Cl)no1 | inconclusive: 13 µM [cytotoxic, partial curve] |  |
| COc1ccc(OC)c2c(/C=C/c3c(C)[nH]c4ccccc34)ccnc12 | active: 20.6 µM |  |
| COc1ccc2ncc3c(-c4ccc(C)c(C)c4)nn(CC(=O)Nc4ccccc4)c3c2c1 | inconclusive: 0.461 µM [rising, full curve, poor fit] |  |
| CC(C)c1ccc2occ(-c3nn[nH]n3)c(=O)c2c1 | inconclusive: 29.1 µM [cytotoxic, partial curve, poor fit] |  |
| COc1ccc(OC)c(NS(=O)(=O)c2ccc3[nH]c(=O)[nH]c3c2)c1 |  | inactive: 11.6% |
| O=C1c2ccccc2C(=O)N1CCCCSc1nnc2c(Cl)cc(Cl)cn12 | inconclusive: 9.2 µM [cytotoxic, partial curve] |  |
| COc1ccc(O)c(/C=N/N=C2/C(=O)Nc3ccccc32)c1 | inconclusive: 6.51 µM [rising, partial curve] |  |
| CC1CCCC(NC(=O)COC(=O)Cc2cn3ccsc3n2)C1C (stereo not drawn) |  | inconclusive: 30.8% |
| NC(=O)N1N=C2/C(=C/c3ccccc3)CCCC2C1c1ccccc1 (stereo not drawn) | inconclusive: 18.4 µM [cytotoxic, single point] |  |
| O=C(C1CCCN(c2ncnc3c2nc2n3CCCCC2)C1)N1CCN(c2ccc(F)cc2)CC1 (stereo not drawn) | inconclusive: 1.3 µM [cytotoxic, partial curve, poor fit] |  |
| C=CCn1c(C)cc(-c2csc(NC(=O)C3CCN(c4ncnc5sc(C)c(C)c45)CC3)n2)c1C |  | inactive: -19.4% |
| CCC1C(=O)C(C)(C)C(=O)OC1c1ccc([N+](=O)[O-])cc1 (stereo not drawn) |  | inactive: -8.73% |
| CCN(CC)CCNc1ccc(CO)c2oc3cc(Cl)ccc3c(=O)c12 | inconclusive: 20.6 µM [cytotoxic, single point] |  |
| COc1cc(C(=O)NC(=S)NNC(=O)c2cnccn2)cc(OC)c1OC | inconclusive: 1.16 µM [cytotoxic, full curve, poor fit] |  |
| O=C1COc2ccc(-c3csc(NCC4CCCO4)n3)cc2N1 (stereo not drawn) |  | inactive: -1.2% |
| Cn1ncc(Cl)c1C(=O)NC(=S)Nc1sc2c(c1C#N)CCCCC2 | inconclusive: 29.1 µM [cytotoxic, single point] |  |
| Cc1nonc1C(=O)N/N=C/c1cc2c(cc1Br)OCO2 | inconclusive: 29.1 µM [rising, single point] |  |
| Cc1cccc(C)c1Nc1nnc(SCC(=O)Nc2ncc(C(F)(F)F)cc2Cl)s1 | inconclusive: 25.9 µM [cytotoxic, single point] |  |
| CCOC(=O)c1cnn(-c2nc(-c3ccccc3F)cs2)c1C(F)(F)F | inconclusive: 18.4 µM [cytotoxic, single point] |  |
| CC1=C(C(=O)N2CCOCC2)CC(CC(=O)NCc2cccc3ccccc23)C(=O)N1Cc1ccc(C(C)(C)C)cc1 (stereo not drawn) | inconclusive: 29.1 µM [cytotoxic, single point] |  |
| O=C1COc2ccc(C(=O)COC(=O)CCc3ccc(S(=O)(=O)N4CCOCC4)cc3)cc2N1 | inconclusive: 10.3 µM [rising, partial curve, poor fit] |  |

| Compound | Potency | activity change, negative = cytotoxicity |
| --- | --- | --- |
| Cc1onc(-c2ccccc2)c1C(=O)N/N=C/c1ccc([N+](=O)[O-])s1 | inconclusive: 14.6 µM [cytotoxic, partial curve, poor fit] |  |
| CCn1c(CNC(=O)c2ccc(OC)cc2)nnc1SCC(=O)Nc1cccc(C)c1 | inconclusive: 6.51 µM [rising, partial curve] |  |
| O=C(COC(=O)c1ccc(F)cc1)NCc1ccc(F)cc1 | inconclusive: 10.3 µM [rising, single point] |  |
| Cc1ccc2c(c1)C(=O)C(=O)N2CC(=O)OC(C)C | inconclusive: 29.1 µM [cytotoxic, single point] |  |
| CC1CCN(C(=O)CSc2nnc3ccc(-c4cccnc4)nn23)CC1 | inconclusive: 18.4 µM [cytotoxic, partial curve, poor fit] |  |
| C=CCN1CCN(C(c2ccc(Cl)cc2)c2nnnn2CCc2ccc(OC)c(OC)c2)CC1 (stereo not drawn) |  | inactive: 0% |
| O=C(Cn1cnc2cc([N+](=O)[O-])ccc2c1=O)Nc1ccc(N2CCOCC2)cc1 |  | inactive: 0.724% |
| Cc1c(C(=O)NCCC2=CCCCC2)oc2ccc(S(=O)(=O)N3CCOCC3)cc12 | inconclusive: 18.4 µM [cytotoxic, single point] |  |
| COc1ccc(-c2c(C#Cc3ccsc3)c3cc(-c4ccc5cc[nH]c5c4)ccc3n2C)cc1 | inconclusive: 29.1 µM [rising, single point] |  |
| CC(=O)Nc1ccc(-c2ccnc3c2CC(C(=O)NCc2cccc(Cl)c2)O3)cc1 (stereo not drawn) | inconclusive: 16.4 µM [cytotoxic, single point] |  |
| CN(CC1CCCN(CCc2cccc(C(F)(F)F)c2)C1)C(=O)c1cc2ccccc2o1 (stereo not drawn) |  | inactive: -21.1% |
| COc1cccc(N/C=C/C(=O)c2ccc(OC)c(OC)c2)c1 | inconclusive: 32.6 µM [cytotoxic, single point] |  |
| Nn1c(SCc2ccccn2)nncc1=O |  | inactive: -7.33% |
| CCS(=O)(=O)N1CCN(C(=O)CCC2CCCC2)CC1 | inconclusive: 23.1 µM [cytotoxic, partial curve] |  |
| CC(=O)c1cccc(NC(=O)C(C)OC(=O)c2ccc(S(C)(=O)=O)c([N+](=O)[O-])c2)c1 (stereo not drawn) |  | inactive: 6.52% |
| CCCSc1ccc2nc(-c3ccccc3)cn2c1 | active: 20.6 µM |  |
| COc1ccc(NC(=O)CN2C(=O)COc3ccc(S(=O)(=O)NC4CCCC4)cc32)cc1OC | inconclusive: 29.1 µM [rising, single point] |  |
| Cc1cc(C)n(CC(=O)c2ccc(Cl)cc2)n1 |  | inactive: -5.97% |
| COCc1cc(C)nc(OCC(=O)N/N=C/c2ccc(C)cc2)c1C#N | inconclusive: 18.4 µM [cytotoxic, single point] |  |
| CCn1c(Cc2ccc(OC)cc2)nnc1SCC(=O)N1CCN(c2ccccc2)CC1 | inconclusive: 11.6 µM [cytotoxic, partial curve] |  |
| CC(C)CC(NC(N)=O)C(=O)NCCc1ccc(Cl)cc1Cl (stereo not drawn) | inconclusive: 14.6 µM [rising, partial curve] |  |
| CCc1ccccc1NC(=S)N=Nc1c(O)n(C)c2ccc(S(=O)(=O)N3CCOCC3)cc12 | inconclusive: 3.26 µM [cytotoxic, partial curve, poor fit] |  |
| Cc1ccc(NC(=O)c2ccc(S(=O)(=O)N(C)c3ccccc3)cc2)cc1S(=O)(=O)N1CCOCC1 |  | inactive: -17.1% |

| Compound | Potency | activity change, negative = cytotoxicity |
| --- | --- | --- |
| CCc1c(C)nc2c(OC)cccc2c1SCCC(=O)O | inconclusive: 29.1 µM [rising, single point] |  |
| CSc1ccc(CCNC(=O)Cn2ncc3c([nH]c4ccccc43)c2=O)cc1 | inconclusive: 29.1 µM [rising, single point] |  |
| COc1cc(C(=O)Nc2cc(C)nn2-c2ccccc2)cc(OC)c1OC | inconclusive: 29.1 µM [cytotoxic, single point] |  |
| COc1ccc(S(=O)(=O)N2CCCCC2)cc1NC(=O)C1CCCO1 (stereo not drawn) | inconclusive: 29.1 µM [cytotoxic, partial curve, poor fit] |  |
| C/C(=N\NC(=O)CNc1cccc(C)c1)c1ccc(Br)s1 | inconclusive: 23.1 µM [cytotoxic, single point] |  |
| CC(=O)Oc1ccc2c(=O)oc(-c3ccccc3)nc2c1 |  | inconclusive: -10.2% |
| O=C(CN1CCCC1)N1CCCc2c1c(=O)oc1ccc(OCc3ccccc3)cc21 | active: 18.4 µM |  |
| COC(=O)COc1ccc(S(=O)(=O)N2CCN(c3ccccc3F)CC2)cc1C | inconclusive: 0.116 µM [rising, full curve, poor fit] |  |
| CCn1c(CSCc2ccc(Cl)cc2)n[nH]c1=S |  | inactive: -14.8% |
| CCOC=C1C(=O)N(C(C)=O)c2cc(OC)c(OC)cc21 | inconclusive: 32.6 µM [cytotoxic, partial curve, poor fit] |  |
| C/C(=N\NC(=O)c1ccc(Cl)cc1)c1ccc(Br)s1 |  | inactive: -13.5% |
| Oc1ccc(/C=N/Nc2ccc(C(F)(F)F)cn2)cc1O | inconclusive: 16.4 µM [cytotoxic, partial curve, poor fit] |  |
| CN(C)C(=O)c1ccc(N=Nc2c(O)c3ccccc3[nH]c2=O)cc1 | inconclusive: 16.4 µM [cytotoxic, single point] |  |
| CC(C)C1S/C(=N/N=C/c2cccs2)NC1=O (stereo not drawn) |  | inactive: 2.08% |
| COc1cc(CN2CCCCCC2)cc(OC)c1 |  | inconclusive: 21.8% |
| COC(=O)c1ccccc1NC(=O)N1CCN(S(=O)(=O)c2ccc(Cl)cc2)CC1 | inconclusive: 9.2 µM [cytotoxic, single point] |  |
| COc1ccc(-c2coc3cc4oc(=O)c5ccccc5c4cc23)cc1F | inconclusive: 0.58 µM [cytotoxic, full curve, poor fit] |  |
| Cc1cc(OCC(=O)Nc2ccccc2F)nc(C(C)C)n1 |  | inactive: -5.74% |
| Fc1ccc(Nc2ncnc3ccccc23)cc1 | inconclusive: 20.6 µM [cytotoxic, single point] |  |
| C=CCn1c(=NC(=O)c2ccc(S(=O)(=O)N3CCCC3)cc2)sc2cc(NC(C)=O)ccc21 | inconclusive: 4.61 µM [cytotoxic, partial curve] |  |
| COc1ccccc1C(=O)N1CCCC1(C#N)c1ccccc1 (stereo not drawn) |  | inactive: -21.2% |
| COP(=O)(OC)c1nc(-c2cccc3ccccc23)oc1NCCc1ccccc1 | inconclusive: 29.1 µM [cytotoxic, single point] |  |

A section from the list above, for reference:

| Compound | Potency | activity change, negative = cytotoxicity |
| --- | --- | --- |
| CCn1c(CSCc2ccc(Cl)cc2)n[nH]c1=S |  | inactive: -14.8% |
| CCOC=C1C(=O)N(C(C)=O)c2cc(OC)c(OC)cc21 | inconclusive: 32.6 µM [cytotoxic, partial curve, poor fit] |  |
